Test results reported in ChEMBL document CHEMBL4699655, “Optimization of the In Vivo Potency of Pyrazolopyrimidine MALT1 Protease Inhibitors by Reducing Metabolism and Increasing Potency in Whole Blood” (J Med Chem, 2020).
Values after ≈ are worked out from the molar mass of the structure shown.

By UniProt entry, the sequences of proteins in these tests, tags left out.
UniProt P08684, whole entry: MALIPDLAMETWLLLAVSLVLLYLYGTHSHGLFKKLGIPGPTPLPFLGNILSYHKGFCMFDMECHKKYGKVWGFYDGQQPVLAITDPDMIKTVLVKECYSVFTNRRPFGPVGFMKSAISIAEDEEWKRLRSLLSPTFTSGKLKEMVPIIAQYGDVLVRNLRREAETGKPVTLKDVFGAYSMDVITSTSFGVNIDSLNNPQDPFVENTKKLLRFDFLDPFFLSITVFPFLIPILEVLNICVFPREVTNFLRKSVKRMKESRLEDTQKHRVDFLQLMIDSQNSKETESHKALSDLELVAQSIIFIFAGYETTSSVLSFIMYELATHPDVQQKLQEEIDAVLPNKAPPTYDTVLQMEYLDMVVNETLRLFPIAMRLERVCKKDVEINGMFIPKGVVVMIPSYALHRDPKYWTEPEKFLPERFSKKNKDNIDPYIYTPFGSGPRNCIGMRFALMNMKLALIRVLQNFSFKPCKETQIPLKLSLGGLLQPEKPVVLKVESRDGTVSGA
UniProt P10635, whole entry: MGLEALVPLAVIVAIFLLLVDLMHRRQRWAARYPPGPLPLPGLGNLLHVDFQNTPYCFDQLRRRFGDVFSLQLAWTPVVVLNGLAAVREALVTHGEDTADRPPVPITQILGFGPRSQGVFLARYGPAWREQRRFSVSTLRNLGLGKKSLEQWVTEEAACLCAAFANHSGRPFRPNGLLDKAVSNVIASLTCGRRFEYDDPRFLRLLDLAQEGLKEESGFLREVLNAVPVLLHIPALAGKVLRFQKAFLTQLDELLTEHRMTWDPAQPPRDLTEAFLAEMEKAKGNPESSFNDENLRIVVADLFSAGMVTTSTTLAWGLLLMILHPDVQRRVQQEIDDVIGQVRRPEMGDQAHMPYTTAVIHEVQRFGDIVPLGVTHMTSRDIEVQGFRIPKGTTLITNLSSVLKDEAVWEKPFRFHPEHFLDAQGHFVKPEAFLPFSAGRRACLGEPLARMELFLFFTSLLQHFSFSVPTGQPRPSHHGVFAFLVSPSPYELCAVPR
UniProt P11712, whole entry: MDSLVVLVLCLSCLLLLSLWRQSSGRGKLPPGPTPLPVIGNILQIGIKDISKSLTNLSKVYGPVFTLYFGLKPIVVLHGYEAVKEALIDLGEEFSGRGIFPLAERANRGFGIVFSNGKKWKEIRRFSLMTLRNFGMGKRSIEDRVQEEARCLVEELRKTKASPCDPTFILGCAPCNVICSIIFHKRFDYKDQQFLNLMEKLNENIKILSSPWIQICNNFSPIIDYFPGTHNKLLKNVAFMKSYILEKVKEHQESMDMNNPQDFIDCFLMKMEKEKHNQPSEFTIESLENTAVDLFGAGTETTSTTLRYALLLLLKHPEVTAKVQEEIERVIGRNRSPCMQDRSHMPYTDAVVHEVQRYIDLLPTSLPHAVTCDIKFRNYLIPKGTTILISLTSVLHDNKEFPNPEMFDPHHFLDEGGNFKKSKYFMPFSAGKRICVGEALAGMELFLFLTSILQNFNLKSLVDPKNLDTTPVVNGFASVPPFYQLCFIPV

Tests used:
[1] = Thermodynamic solubility of the compound
Cytochrome P450 3A4 = Cytochrome P450 3A4 (Homo sapiens, UniProt P08684); assay: Inhibition of CYP3A4 (unknown origin)
[2] = Lipophilicity, logP of the compound; conditions: octanol/water
Cytochrome P450 2D6 = Cytochrome P450 2D6 (Homo sapiens, UniProt P10635); assay: Inhibition of CYP2D6 (unknown origin)
Cytochrome P450 2C9 = Cytochrome P450 2C9 (Homo sapiens, UniProt P11712); assay: Inhibition of CYP2C9 (unknown origin)

Question: Which solubility thermodynamic [1] does the source give for `CO[C@@H](C)c1c(NC(=O)Nc2ccnc(C(F)(F)F)c2)cnc2cc(Cl)nn12` here?
Answer: 4 µg/mL (≈ 9.64 µM)

Question: What about the IC50 (Cytochrome P450 3A4) of the same compound?
Answer: > 20 µM

Question: And the logP [2]?
Answer: 3.6

Question: And the IC50 (Cytochrome P450 2D6)?
Answer: > 20 µM

Question: What about the IC50 (Cytochrome P450 2C9) of the same compound?
Answer: > 20 µM
